± gives the standard deviation. The list shows a part of the results, in another mix than the full data. The uncertainty is large for many entries.
Tested on: MILI (PIWIL2) piRISC loaded with Kctd7 piRNA (26 nt)
Test: pre-steady-state target cleavage rate (min^-1); MIWI and MILI are mouse PIWI proteins and EfPiwi is from a freshwater sponge; tags in brackets are library labels; higher = faster piRNA-guided slicing of the target
Conditions: guide: Kctd7 piRNA 5'p-UGUUAAUCUCUCAGAGAAGGUGACAG; auxiliary factor: 500 nM mouse GTSF1
Experimental: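 Cleave-'n-Seq: a library of target RNAs (target site embedded in constant flanks, ACAGCATTCCGCGTTAGTGATATCCG... 5' flank; DNA-blocked outside the site) at 0.1 nM was incubated with 1 nM active mouse MILI or MIWI piRISC (synthetic 5'-monophosphorylated piRNA guide) with or without 500 nM mouse GTSF1 at 33 °C for 1 min to 16 h. Uncleaved targets were sequenced and normalised to non-target controls, and the pooled three trials were fitted to a burst-and-steady-state model to give the pre-steady-state cleavage rate (min^-1; k3 is constrained to at most 1e-4). Sequence is the target site only; target names encode pairing extent (gX:gY) and contiguous / 1-mismatch / 2-mismatch / bulge geometry. Fits with R² ≤ 0 are excluded.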

| Sequence | pre-steady-state target cleavage rate |
| --- | --- |
| UAGUCUGUCAGGUUCUCUGAGAGAUAUUGA | 0.00052 ± 0.0079 |
| UAGUGAGUCACCUUGACUGAGAGAUAUUGA | 0.000362 ± 0.026 |
| UAGUGACACACCUUCUCUCUCAGAUUUUGA | 0.000547 ± 0.027 |
| UAGUGACAGUGGAUCUCUGAGACAUUUACA | 0.000175 ± 0.029 |
| UAGUGACAGUCCUUCUGUGAGAGAUUAAGA | 0.00161 ± 0.0047 |
| UAGUGACAGUGGAAGUCUGAGAGUAUUAACA | 0.000487 ± 0.0044 |
| UAGUGACAGUCCUUCUCUCUCAGAUUAACA | 0.00183 ± 0.0045 |
| UAGUGACAGUGGAAGUCUGAGAUAUUAACA | 0.000759 ± 0.0069 |
| UAGUGACAGUGGUGCUCUGAGAGAUUAACA | 0.00261 ± 0.004 |
| UAGUGACACACCUUGUCUGAGUGAUUAACA | 0.00304 ± 0.0049 |
| UAGUCUGUCACCUUCUCUGACUCAUUAAGA | 0.000604 ± 0.0055 |
| UAGUCUCUCACCUUCUGUGAGAGAUUAACA | 0.00147 ± 0.0094 |
| UAGUGACUCUGGUUCUCUGAGAGAUUAUGA | 0.000265 ± 0.035 |
| UAGUGACAGACCUUCUCUAGAGAUUAACA | 0.00349 ± 0.0055 |
| UAGUGACAGUGCUUCUCUGAGUAGAUUAACA | 0.00136 ± 0.0097 |
| UAGUGACUCACCUUGAGUGAGAGAUUAUGA | 0.000422 ± 0.026 |
| UAGUGACAGACCUUCUCUGAGACUUUUUGA | 0.000114 ± 0.086 |
| UAGUGACAGUCCUUCUCUGAGAGAUUACCA | 0.00831 ± 0.0032 |
| UAGUGACAGUGGAUCUCUCUCAGAUUAACA | 0.000305 ± 0.021 |
| UAGUGACAGUGGAACUCUGAAGAGAUUAACA | 0.000112 ± 0.071 |
| UAGUGACUCACGUUCUCUGAGAGAUUUUGA | 0.000706 ± 0.011 |
| UAGUGACAGUGGAAGAGAGAGCAGAUUAACA | 0.00017 ± 0.034 |
| UAGUGACAGUGGAAGACUGAGACUAUAACA | 0.000249 ± 0.03 |
| UAGUGACAGUGGAAGACUGACAGAUUUACA | < 0.0001 |

2 successive records already listed:

| Sequence | pre-steady-state target cleavage rate |
| --- | --- |
| UAGUGACAGUGCUUCUCUGAGUAGAUUAACA | 0.00136 ± 0.0097 |
| UAGUGACUCACCUUGAGUGAGAGAUUAUGA | 0.000422 ± 0.026 |

The list goes on.

| Sequence | pre-steady-state target cleavage rate |
| --- | --- |
| UAGUGUGUCACCUUCUCCGAGAGAUUAACA | 0.373 ± 0.1 |
| UAGUGACAGUGGAUCUCUGACAGAUUAUCA | 0.000205 ± 0.037 |
| UAGUGACAGUCCUUCUCUGUAGAGAUUAACA | 0.000422 ± 0.0086 |
| UAGUGACUCACCUUGACUGAGAGAUAUUGA | 0.00056 ± 0.018 |
| UAGUGACACACCUUCUCUGAGACAUUAUGA | 0.00103 ± 0.0072 |
| UAGUGACAGACCUUCUCUGAAGAGAUUAACA | 0.000497 ± 0.013 |
| UAGUGACAGUGCUUCUCUGACUCAUUAACA | 0.000669 ± 0.0088 |
| UAGUGACAGUGCUUCUGUGACAGAUUAACA | 0.00166 ± 0.0062 |
| UAGUGACUCACCUUCUCUGCAGAGAUUAACA | 0.000779 ± 0.01 |
| UAGUGAGUCACCUUGAGUGAGAGAUUAAGA | 0.00345 ± 0.005 |
| UAGUGACAGUGGAAGUCUGAGUGAUAAACA | 0.000198 ± 0.021 |
| UAGUGACAGUGGUUCUCUGAGACGAUUAACA | 0.000145 ± 0.019 |
| UAGUGACUCACCUUCUGAGAGAGAUAUUGA | 0.000874 ± 0.0092 |
| UAGUGACAGAGCUUCUCUGAGAGAAUAACA | 0.00329 ± 0.0036 |
| UAGUGACAGUGGUUCACUGUGAGAUUAACA | 0.000884 ± 0.01 |
| UAGUGACAGUGGAAGAGACUCACAUUAACA | 0.000163 ± 0.02 |
| UAGUGACAGUGGAAGAGUGACUCAUUAACA | 0.000512 ± 0.014 |
| UAGUGAGUCACCUUCUCGAGAGAUUAACA | 0.0598 ± 0.015 |
| UAGUGACAGUGGUUCUGUGAGAGUUUAACA | 0.000458 ± 0.013 |
| UAGUGAGUGACCUUCUCUGAGAGAUAAACA | 0.0814 ± 0.021 |
| UAGUGACAGUGCUUCUCUGACACAUUAACA | 0.00031 ± 0.017 |
| UAGUGAGUCACCUUCUCUGAGAGUUUAACA | 0.277 ± 0.061 |
| UAGUGACAGUCCUUCUCUGCAGAGAUUAACA | 0.000122 ± 0.016 |
| UAGUCUGUCAGGUUCUCUGAGAGAUUAUGA | 0.00124 ± 0.0059 |

Quoted at random: 2 entries already listed.

| Sequence | pre-steady-state target cleavage rate |
| --- | --- |
| UAGUGACAGUGGAUCUCUGACAGAUUAUCA | 0.000205 ± 0.037 |
| UAGUGACAGUGGUUCUCUGAGACGAUUAACA | 0.000145 ± 0.019 |

More results:

| Sequence | pre-steady-state target cleavage rate |
| --- | --- |
| UAGUGACAGUGGUUCUCGGAGAGAUUAACA | 0.000174 ± 0.017 |
| UAGUGACAGACCUUCUCUGACUCAUUAACA | 0.00137 ± 0.0092 |
| UAGUCUGUCACCUUGUCUGAGAGAUUAACA | 0.133 ± 0.016 |
| UAGUGACAGUGGAUCUCUGAGAGAUUAACU [g2:g17:cont:t1U] | 0.00183 ± 0.0049 |
| UAGUGACAGUGGAAGAGAGAGAGGAUUAACA | 0.000225 ± 0.025 |
| UAGUGACAGUGGUUGUCUGAGUGAUUAACA | 0.00115 ± 0.0059 |
| UAGUGACAGUGGAAGAGUGAGCAGAUUAACA | 0.000247 ± 0.025 |
| UAGUGACAGUGGUUGUCUGAGAGAUUAUCA | 0.002 ± 0.0043 |
| UAGUGACAGUCCUUGUCUGAGAGAUUAAGA | 0.00045 ± 0.019 |
| UAGUGACAGUCCUUCUCUGAGAGAAAUAGA | 0.000114 ± 0.016 |
| UAGUGACAGUGGUUCUCUGAGAGAUUAUACA | 0.000725 ± 0.0088 |
| UAGUCUGUCACCUUCUCUGACUCAUUAUGA | 0.00123 ± 0.0045 |
| UAGUGACAGUGGUUCUGUGACAGAUUAACA | 0.000293 ± 0.022 |
| UAGUGACAGUGGUUCUCAGAGAGUUUAACA | 0.000551 ± 0.013 |
| UAGUGACAGUGGAAGUCUGAGAGAUUGACA | 0.000749 ± 0.0061 |
| UAGUGAGUCACCUUCUCUGAGAGAUUACACA | 0.187 ± 0.038 |
| UAGUGAGUCACCUUCUCUGAGAAAUUAACA | 0.132 ± 0.027 |
| UAGUGACAGUGGAACUCUGAGAGAUUGACA | 0.000432 ± 0.025 |
| UAGUGACACACCUUCUCUGACUGAUUAACA | 0.00109 ± 0.0072 |
| UAGUGACAGUGGAAGUCUGAGAGAUUAUCA | 0.000115 ± 0.019 |
| UAGUGACAGUCCUUCUCGAGAGAUUAACA | 0.00334 ± 0.0046 |
| UAGUGACAGUGGUUCUCUGUCUCUAAUUGA [g12:g18:cont:t1A] | 0.000133 ± 0.027 |
| UAGUGACAGUGGAAGAGUGAGAGAUUUUCA | 0.000234 ± 0.035 |

Reference: the supplement of paper PMC10338343
